Source: the supplement of paper PMC10849652
Some of the results follow.

Chains of the proteins cited; added tags and fusions are not shown. Lines headed by an entry give the natural chain unless they say otherwise; changes in a name come on top.
UniProt Q9H6U6: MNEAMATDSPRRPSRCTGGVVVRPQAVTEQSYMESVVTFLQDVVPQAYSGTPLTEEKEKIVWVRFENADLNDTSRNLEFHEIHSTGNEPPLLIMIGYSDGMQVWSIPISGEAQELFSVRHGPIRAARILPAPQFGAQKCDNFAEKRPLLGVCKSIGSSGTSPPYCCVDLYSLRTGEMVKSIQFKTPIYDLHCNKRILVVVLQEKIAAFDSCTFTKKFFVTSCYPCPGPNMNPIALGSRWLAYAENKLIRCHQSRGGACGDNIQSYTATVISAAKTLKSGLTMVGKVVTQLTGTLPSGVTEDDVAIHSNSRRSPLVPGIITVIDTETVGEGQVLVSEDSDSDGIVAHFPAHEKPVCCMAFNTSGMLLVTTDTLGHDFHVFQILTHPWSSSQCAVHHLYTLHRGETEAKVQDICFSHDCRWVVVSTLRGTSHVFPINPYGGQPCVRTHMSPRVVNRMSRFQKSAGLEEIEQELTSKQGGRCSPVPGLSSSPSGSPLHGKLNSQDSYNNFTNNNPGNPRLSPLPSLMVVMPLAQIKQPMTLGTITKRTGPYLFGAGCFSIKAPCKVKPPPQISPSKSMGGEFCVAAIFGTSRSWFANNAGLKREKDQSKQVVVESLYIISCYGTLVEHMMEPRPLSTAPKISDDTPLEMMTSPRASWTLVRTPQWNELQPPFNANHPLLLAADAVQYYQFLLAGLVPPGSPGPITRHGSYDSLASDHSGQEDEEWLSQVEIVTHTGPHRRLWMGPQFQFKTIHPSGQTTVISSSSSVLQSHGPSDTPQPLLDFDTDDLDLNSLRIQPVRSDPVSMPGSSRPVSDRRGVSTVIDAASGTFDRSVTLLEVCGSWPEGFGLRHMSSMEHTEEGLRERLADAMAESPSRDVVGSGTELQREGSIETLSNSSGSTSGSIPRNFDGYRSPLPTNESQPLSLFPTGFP
UniProt Q9H3K6: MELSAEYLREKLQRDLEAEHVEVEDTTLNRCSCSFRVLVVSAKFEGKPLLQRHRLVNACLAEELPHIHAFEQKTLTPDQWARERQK
UniProt Q15059, whole entry, looked up: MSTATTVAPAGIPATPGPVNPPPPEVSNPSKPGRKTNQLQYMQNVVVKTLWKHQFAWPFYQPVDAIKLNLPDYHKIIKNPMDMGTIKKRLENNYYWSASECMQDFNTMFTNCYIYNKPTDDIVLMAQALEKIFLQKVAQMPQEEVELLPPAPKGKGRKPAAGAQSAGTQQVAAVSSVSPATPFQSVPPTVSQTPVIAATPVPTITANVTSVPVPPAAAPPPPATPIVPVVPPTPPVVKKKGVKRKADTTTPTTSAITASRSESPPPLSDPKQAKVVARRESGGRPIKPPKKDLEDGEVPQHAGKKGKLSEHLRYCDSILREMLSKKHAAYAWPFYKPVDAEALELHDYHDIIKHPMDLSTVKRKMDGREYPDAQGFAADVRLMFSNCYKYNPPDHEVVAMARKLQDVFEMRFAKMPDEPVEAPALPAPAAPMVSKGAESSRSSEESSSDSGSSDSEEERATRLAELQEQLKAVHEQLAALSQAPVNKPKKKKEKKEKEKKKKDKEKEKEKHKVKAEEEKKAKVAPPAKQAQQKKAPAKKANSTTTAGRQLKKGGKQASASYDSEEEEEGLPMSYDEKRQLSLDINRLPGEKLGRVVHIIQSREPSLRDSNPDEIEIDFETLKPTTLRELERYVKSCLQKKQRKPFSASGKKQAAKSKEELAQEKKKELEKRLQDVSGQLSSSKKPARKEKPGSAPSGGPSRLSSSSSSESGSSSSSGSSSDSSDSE
UniProt Q9BXH1: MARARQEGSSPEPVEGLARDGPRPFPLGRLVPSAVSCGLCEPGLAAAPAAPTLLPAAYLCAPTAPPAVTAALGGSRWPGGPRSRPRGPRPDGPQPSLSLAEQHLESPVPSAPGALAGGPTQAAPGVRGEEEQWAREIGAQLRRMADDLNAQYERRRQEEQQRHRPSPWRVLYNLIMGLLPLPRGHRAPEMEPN
UniProt P07738: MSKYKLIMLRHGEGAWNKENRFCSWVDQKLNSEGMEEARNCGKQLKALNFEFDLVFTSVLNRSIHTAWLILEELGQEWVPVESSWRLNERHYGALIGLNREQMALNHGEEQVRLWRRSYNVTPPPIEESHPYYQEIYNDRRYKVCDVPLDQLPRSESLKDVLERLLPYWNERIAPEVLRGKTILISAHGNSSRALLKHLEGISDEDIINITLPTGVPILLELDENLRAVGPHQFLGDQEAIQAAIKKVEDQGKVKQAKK
UniProt Q92934: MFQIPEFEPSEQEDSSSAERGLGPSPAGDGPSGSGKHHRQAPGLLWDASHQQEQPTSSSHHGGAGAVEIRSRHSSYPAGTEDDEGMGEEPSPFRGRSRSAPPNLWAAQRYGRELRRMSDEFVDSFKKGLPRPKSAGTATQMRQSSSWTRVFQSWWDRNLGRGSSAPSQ
UniProt Q9NRL2: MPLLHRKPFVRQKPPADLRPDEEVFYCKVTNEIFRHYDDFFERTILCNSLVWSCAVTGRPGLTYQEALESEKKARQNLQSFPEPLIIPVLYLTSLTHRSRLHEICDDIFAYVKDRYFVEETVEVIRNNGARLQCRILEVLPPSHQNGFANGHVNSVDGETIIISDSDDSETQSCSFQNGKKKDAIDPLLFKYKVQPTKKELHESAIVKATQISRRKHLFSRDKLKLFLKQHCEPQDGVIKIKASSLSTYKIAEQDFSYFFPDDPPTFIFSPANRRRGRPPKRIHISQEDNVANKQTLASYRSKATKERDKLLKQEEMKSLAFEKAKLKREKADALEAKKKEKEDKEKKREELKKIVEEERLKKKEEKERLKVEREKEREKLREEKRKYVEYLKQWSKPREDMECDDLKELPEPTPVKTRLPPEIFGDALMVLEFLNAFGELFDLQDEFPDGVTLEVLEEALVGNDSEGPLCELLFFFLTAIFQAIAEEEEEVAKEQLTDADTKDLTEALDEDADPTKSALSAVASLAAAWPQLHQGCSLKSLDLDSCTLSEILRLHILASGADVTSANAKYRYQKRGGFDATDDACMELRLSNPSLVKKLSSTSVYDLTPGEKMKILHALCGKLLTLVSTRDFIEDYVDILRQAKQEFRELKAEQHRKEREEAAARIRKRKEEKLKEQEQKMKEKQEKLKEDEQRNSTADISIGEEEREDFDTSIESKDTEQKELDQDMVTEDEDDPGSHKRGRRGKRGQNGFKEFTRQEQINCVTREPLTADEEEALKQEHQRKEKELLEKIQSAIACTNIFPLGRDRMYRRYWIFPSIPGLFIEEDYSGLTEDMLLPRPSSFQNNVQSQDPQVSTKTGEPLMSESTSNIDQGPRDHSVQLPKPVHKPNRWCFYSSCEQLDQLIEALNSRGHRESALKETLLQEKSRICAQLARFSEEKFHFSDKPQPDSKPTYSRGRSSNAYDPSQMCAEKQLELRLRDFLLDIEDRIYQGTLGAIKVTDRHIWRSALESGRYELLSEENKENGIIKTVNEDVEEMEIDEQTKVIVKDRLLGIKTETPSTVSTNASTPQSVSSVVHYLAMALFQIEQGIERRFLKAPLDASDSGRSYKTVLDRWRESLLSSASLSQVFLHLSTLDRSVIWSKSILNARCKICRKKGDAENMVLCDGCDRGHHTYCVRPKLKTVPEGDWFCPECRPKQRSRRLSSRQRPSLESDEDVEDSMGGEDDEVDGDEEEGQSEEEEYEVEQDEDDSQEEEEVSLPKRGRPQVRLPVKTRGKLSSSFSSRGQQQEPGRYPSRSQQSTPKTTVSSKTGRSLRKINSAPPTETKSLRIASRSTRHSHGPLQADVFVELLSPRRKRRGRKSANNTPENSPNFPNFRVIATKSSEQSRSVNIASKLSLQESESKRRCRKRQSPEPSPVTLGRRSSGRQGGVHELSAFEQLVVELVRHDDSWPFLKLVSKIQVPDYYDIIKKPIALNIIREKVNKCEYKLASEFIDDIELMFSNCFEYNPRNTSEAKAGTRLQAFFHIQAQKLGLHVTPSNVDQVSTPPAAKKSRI
UniProt Q92560: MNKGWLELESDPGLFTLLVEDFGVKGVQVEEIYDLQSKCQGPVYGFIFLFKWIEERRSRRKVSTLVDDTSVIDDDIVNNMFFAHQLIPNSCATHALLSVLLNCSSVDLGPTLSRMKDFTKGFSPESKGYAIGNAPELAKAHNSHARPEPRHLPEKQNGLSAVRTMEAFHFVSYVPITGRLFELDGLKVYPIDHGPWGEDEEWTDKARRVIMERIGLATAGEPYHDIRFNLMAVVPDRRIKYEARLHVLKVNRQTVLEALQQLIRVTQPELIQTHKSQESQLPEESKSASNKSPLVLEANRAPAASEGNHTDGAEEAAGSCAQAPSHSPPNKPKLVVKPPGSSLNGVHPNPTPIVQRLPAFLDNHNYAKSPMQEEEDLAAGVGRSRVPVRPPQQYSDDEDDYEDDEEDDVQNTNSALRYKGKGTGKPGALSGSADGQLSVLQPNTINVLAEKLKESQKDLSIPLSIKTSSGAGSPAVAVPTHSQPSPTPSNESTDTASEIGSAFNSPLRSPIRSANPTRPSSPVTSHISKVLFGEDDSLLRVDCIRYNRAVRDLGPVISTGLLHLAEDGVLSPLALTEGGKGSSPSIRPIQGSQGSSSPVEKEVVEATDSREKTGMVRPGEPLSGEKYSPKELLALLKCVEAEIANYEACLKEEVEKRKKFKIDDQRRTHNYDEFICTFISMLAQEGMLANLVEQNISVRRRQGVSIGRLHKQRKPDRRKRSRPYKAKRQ
UniProt O95817, whole entry, looked up: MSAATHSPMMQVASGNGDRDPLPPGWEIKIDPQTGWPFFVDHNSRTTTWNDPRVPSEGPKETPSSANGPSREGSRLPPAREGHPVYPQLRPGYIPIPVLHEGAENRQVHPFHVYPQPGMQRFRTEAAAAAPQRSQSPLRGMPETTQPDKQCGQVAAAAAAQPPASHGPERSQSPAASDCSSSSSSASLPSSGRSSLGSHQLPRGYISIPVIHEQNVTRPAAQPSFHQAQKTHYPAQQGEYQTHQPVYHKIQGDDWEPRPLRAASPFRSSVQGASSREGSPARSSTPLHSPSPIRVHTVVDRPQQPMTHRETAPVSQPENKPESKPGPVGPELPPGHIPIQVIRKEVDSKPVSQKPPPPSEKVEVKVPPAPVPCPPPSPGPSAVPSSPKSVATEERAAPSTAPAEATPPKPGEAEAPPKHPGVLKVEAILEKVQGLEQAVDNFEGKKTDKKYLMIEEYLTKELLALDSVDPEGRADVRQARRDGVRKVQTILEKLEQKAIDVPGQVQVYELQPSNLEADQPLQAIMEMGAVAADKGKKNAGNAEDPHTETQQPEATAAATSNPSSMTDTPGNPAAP
UniProt O75531: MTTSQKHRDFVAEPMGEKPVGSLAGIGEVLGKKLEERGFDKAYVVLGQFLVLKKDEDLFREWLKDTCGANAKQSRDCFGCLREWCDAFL
UniProt Q9BXK5, whole entry, looked up: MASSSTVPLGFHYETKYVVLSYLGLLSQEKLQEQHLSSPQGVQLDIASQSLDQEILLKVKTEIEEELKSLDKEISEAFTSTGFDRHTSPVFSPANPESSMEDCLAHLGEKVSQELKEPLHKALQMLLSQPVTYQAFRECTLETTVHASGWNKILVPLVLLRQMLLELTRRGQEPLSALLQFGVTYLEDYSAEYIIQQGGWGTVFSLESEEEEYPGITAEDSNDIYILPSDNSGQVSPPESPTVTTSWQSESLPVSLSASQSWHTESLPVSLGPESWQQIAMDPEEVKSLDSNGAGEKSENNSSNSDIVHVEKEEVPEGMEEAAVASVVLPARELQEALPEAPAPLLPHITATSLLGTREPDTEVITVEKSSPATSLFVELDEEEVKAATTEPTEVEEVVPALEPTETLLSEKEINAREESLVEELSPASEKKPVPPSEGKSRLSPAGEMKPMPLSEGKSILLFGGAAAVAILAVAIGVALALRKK
UniProt P10415, whole entry, looked up: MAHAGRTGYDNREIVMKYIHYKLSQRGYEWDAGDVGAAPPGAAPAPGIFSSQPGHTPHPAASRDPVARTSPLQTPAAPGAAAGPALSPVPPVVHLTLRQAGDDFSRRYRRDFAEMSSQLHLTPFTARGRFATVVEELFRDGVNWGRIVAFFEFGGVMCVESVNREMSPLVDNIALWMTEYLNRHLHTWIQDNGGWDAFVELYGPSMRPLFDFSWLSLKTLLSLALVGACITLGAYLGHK
UniProt Q8WY22: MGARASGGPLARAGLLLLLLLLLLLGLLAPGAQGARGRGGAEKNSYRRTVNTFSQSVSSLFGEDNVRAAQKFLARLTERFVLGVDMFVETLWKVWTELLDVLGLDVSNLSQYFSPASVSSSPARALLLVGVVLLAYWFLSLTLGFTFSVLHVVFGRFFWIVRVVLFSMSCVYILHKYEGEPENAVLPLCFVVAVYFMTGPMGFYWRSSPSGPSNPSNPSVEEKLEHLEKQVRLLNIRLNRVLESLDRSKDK

Compound: C1=CC=C(C=C1)[C@H](COC2=CC3=C(C=C2)NC(=O)N3)NC(=O)C4=CC=CN(C4=O)CC5=CC(=C(C=C5)F)F
Test: log2 fold change, soluble protein after heating vs DMSO (PISA); higher = thermal stabilisation; K562 lysate, 10 uM; active = over 0.2 and 3.5 SD of the protein, either way, in both replicates (recomputed)
Summary of the method: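 Soluble protein was defined as the supernatant remaining after 21,000xg for 90 min, following pooling of heated aliquots and adjustment to 0.5% NP-40 at 4°C. Before that, crude K562 extract at 1 mg/mL protein in PBS pH 7.4 with 1 mM MgCl2 was treated with 10 μM compound for 30 min and heated for 3 min across 48°C-58°C. Quantification used TMTpro 16plex LC-MS/MS with channel sums equalised, and values are log-two fold changes in thermal stability relative to solvent controls from duplicates.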

Q: For BCAS3 isoform 8 (UniProt Q9H6U6), which log2 fold change is on record?
A: inactive: 0.037

Q: How did the log2 fold change turn out when BOLA2 (UniProt Q9H3K6) was run?
A: inactive: -0.052

Q: How did the log2 fold change turn out when BRD3 (UniProt Q15059) was run?
A: inactive: 0.027

Q: With BBC3 (UniProt Q9BXH1) as the target, how does the log2 fold change read?
A: inactive: -0.034

Q: For BPGM (UniProt P07738), which log2 fold change is on record?
A: inactive: 0.032

Q: BAD (UniProt Q92934) was tested. Which log2 fold change did it give?
A: inactive: 0.032

Q: With BAZ1A (UniProt Q9NRL2) as the target, how does the log2 fold change read?
A: inactive: 0.084

Q: For BAP1 (UniProt Q92560), which log2 fold change is on record?
A: inactive: 0.05

Q: Which log2 fold change does the source give for BAG3 (UniProt O95817) here?
A: inactive: 0.022

Q: With BANF1 (UniProt O75531) as the target, how does the log2 fold change read?
A: inactive: 0.022

Q: How did the log2 fold change turn out when BCL2L13 (UniProt Q9BXK5) was run?
A: inactive: 0.093

Q: Which log2 fold change does the source give for BCL2 (UniProt P10415) here?
A: inactive: -0.02

Q: BRI3BP (UniProt Q8WY22) was tested. Which log2 fold change did it give?
A: inactive: 0.016

Q: For BOP1 (UniProt Q14137), which log2 fold change is on record?
A: inactive: 0.014
